Results deposited as PubChem BioAssay AID1508588 (Peter MacCallum Cancer Centre, 2020)

- Screen: 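Genome-wide search for knock-downs that heighten vemurafenib action in melanoma cells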 (primary screen)
- System: human WM266.4 melanoma cells (BRAF V600 mutant)
- Knock-down reagent: siRNA pool against human genes, 40 nM
- Time to read-out: 96 h from transfection to read-out
- Conditions: vemurafenib 300 nM (about IC25), added 48 h after transfection, for 48 h; comparison arm got DMSO vehicle only
- Measured: 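Cell gain (DAPI nuclei at end minus before drug, mean of two replicates) and medium lactate by absorbance per cell, both as ratio to non-targeting siRNA, also grouped into fold-change classes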
- Direction: cell gain with vemurafenib: higher = more cell gain than with non-targeting siRNA; lactate per cell with vemurafenib: higher = more lactate made per cell
- Hit rule: 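Enhancement is called by pairing each knock-down's vehicle-arm and drug-arm fold-change classes for viability or glycolysis; which class combinations qualify is not given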
- Meaning of the calls: active = enhances vemurafenib effect; inactive = no enhancement seen
In all, the deposit lists about 18,000 reagents; below is a random part of them. 790 of them (4.4%) count as active. 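Calls rest on a combination of fold-change classes in drug and vehicle arms, not all shown here.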 Entries without a mark were called inactive.

LNPEP (leucyl and cystinyl aminopeptidase) — cell gain with vemurafenib: 0.71; lactate per cell with vemurafenib: 0.82
MNAT1 (MNAT1 component of CDK activating kinase) — cell gain with vemurafenib: 0.97; lactate per cell with vemurafenib: 0.86
TOX3 (TOX high mobility group box family member 3) — cell gain with vemurafenib: 0.5; lactate per cell with vemurafenib: 1.58
EXOSC10 (exosome component 10) — cell gain with vemurafenib: -0.12; lactate per cell with vemurafenib: 2
SORCS1 (sortilin related VPS10 domain containing receptor 1) — cell gain with vemurafenib: 0.77; lactate per cell with vemurafenib: 0.77
SPTAN1 (spectrin alpha, non-erythrocytic 1) — cell gain with vemurafenib: 0.4; lactate per cell with vemurafenib: 0.72
ATP2B3 (ATPase plasma membrane Ca2+ transporting 3) — cell gain with vemurafenib: 0.95; lactate per cell with vemurafenib: 0.63
PROX1 (prospero homeobox 1) — cell gain with vemurafenib: 0.62; lactate per cell with vemurafenib: 1.9
NYNRIN (NYN domain and retroviral integrase containing) — cell gain with vemurafenib: 0.17; lactate per cell with vemurafenib: 2.34
ZDHHC21 (zDHHC palmitoyltransferase 21) — cell gain with vemurafenib: 0.81; lactate per cell with vemurafenib: 0.48
ZNF835 (zinc finger protein 835) — cell gain with vemurafenib: 0.53; lactate per cell with vemurafenib: 0.84
SMCR8 (SMCR8-C9orf72 complex subunit) — cell gain with vemurafenib: 0.53; lactate per cell with vemurafenib: 1.34
TLE6 (TLE family member 6, subcortical maternal complex member) — cell gain with vemurafenib: 0.19; lactate per cell with vemurafenib: 1.17
WDR13 (WD repeat domain 13) — cell gain with vemurafenib: 0.74; lactate per cell with vemurafenib: 1.31
ZNF148 (zinc finger protein 148) — cell gain with vemurafenib: 1.04; lactate per cell with vemurafenib: 0.75
MFF (mitochondrial fission factor) — cell gain with vemurafenib: 0.73; lactate per cell with vemurafenib: 0.91
SLC7A4 — cell gain with vemurafenib: 0.64; lactate per cell with vemurafenib: 0.63
BRICD5 (BRICHOS domain containing 5) — cell gain with vemurafenib: 0.59; lactate per cell with vemurafenib: 0.84
UROD (uroporphyrinogen decarboxylase) — cell gain with vemurafenib: 0.89; lactate per cell with vemurafenib: 0.64
NUDT13 (nudix hydrolase 13) — cell gain with vemurafenib: 0.65; lactate per cell with vemurafenib: 0.38
SLC22A8 — cell gain with vemurafenib: 0.48; lactate per cell with vemurafenib: 1.1
SRSF11 (serine and arginine rich splicing factor 11) — cell gain with vemurafenib: 0.16; lactate per cell with vemurafenib: 1.64
NRCAM (neuronal cell adhesion molecule) — cell gain with vemurafenib: 0.89; lactate per cell with vemurafenib: 0.72
LAPTM4A (lysosomal protein transmembrane 4 alpha) — cell gain with vemurafenib: 0.27; lactate per cell with vemurafenib: 0.44
RPP21 (ribonuclease P subunit p21) — cell gain with vemurafenib: 0.47; lactate per cell with vemurafenib: 1.1
APOL3 (apolipoprotein L3) — cell gain with vemurafenib: 0.95; lactate per cell with vemurafenib: 1.78
SORT1 (sortilin 1) — cell gain with vemurafenib: -0.02; lactate per cell with vemurafenib: 2.66
EMB (embigin) — cell gain with vemurafenib: 0.41; lactate per cell with vemurafenib: 1.27
TSPAN16 (tetraspanin 16) — cell gain with vemurafenib: 0.9; lactate per cell with vemurafenib: 0.9
SDHAF4 (succinate dehydrogenase complex assembly factor 4) — cell gain with vemurafenib: 0.71 (active); lactate per cell with vemurafenib: 0.68
REG3A (regenerating family member 3 alpha) — cell gain with vemurafenib: 0.61; lactate per cell with vemurafenib: 1.15
MERTK (MER proto-oncogene, tyrosine kinase) — cell gain with vemurafenib: 0.81; lactate per cell with vemurafenib: 1.48
ZNF626 (zinc finger protein 626) — cell gain with vemurafenib: 0.73; lactate per cell with vemurafenib: 0.8
XPO6 (exportin 6) — cell gain with vemurafenib: 1.11; lactate per cell with vemurafenib: 0.58
SPATA16 (spermatogenesis associated 16) — cell gain with vemurafenib: 0.3; lactate per cell with vemurafenib: 0.66
CBR4 (carbonyl reductase 4) — cell gain with vemurafenib: 0.53; lactate per cell with vemurafenib: 0.62
VANGL2 (VANGL planar cell polarity protein 2) — cell gain with vemurafenib: 1.14; lactate per cell with vemurafenib: 0.92
LDB1 (LIM domain binding 1) — cell gain with vemurafenib: 0.75; lactate per cell with vemurafenib: 0.74
ZNF460 (zinc finger protein 460) — cell gain with vemurafenib: 0.56; lactate per cell with vemurafenib: 1.1
ADGRL4 (adhesion G protein-coupled receptor L4) — cell gain with vemurafenib: 0.79; lactate per cell with vemurafenib: 0.51
